Data source: PubChem BioAssay AID504764 (Drosophila RNAi Screening Center, 2011)
The deposit covers about 22,000 reagents; this is a random part of those with a known target gene and a result. In the full data, 403 (1.9%) got an active call. 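Unnormalised raw counts per well; ratio z-scores behind the hit calls and whether each hit raises or lowers signal are not deposited.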 A number with no mark means an inactive call. The numbers tell different reagents against one gene apart. Not given: the amount of reagent.

Test: 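Genome-wide screen for regulators of Notch-driven gene expression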 (primary screen)
System: Drosophila Kc167 cells
Reagent: long dsRNA against Drosophila genes
Duration: about 5 days (4 days dsRNA, then 24 h after transfection)
Conditions: transfection of constitutively active membrane-tethered Notch lacking the extracellular domain, read 24 h later
Detection: 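Firefly luciferase from an E(spl)m3 reporter with active Notch, plus control-promoter and uninduced reporter wells for normalisation; unnormalised counts, duplicate wells a and b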
Reading the numbers: induced reporter light, run 1, well a and induced reporter light, run 1, well b: higher = more light from the Notch target reporter with active Notch; control promoter light, run 1, well a and control promoter light, run 1, well b: higher = more light from the viral control promoter (cell number, transfection, viability); uninduced reporter light, run 1, well a: higher = more light from the Notch target reporter without active Notch
Rule for the call: 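Wells with low control signal or poorly matching duplicates excluded; duplicates averaged; per source plate, z beyond ±2 for induced/control log2 ratio or beyond ±1.8 for induced/uninduced marks a hit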
Calls: active = modifier hit (raised or lowered Notch signal); inactive = not a hit

Target gene	dsRNA no.	induced reporter light, run 1, well a	induced reporter light, run 1, well b	control promoter light, run 1, well a	control promoter light, run 1, well b	uninduced reporter light, run 1, well a
TwdlG (TweedleG)	1	61580	44525	36650	32245	3175
Osbp (Oxysterol binding protein)	1	1.44e5	1.51e5	1.60e5	1.67e5	16240
Kr-h1 (Kruppel homolog 1)	1	86480	83895	90595	83575	6060
Kr-h1 (Kruppel homolog 1)	2	1.57e5	1.70e5	1.54e5	1.55e5	15040
Nha2 (Na[+]/H[+] hydrogen antiporter 2)	1	1.60e5	1.50e5	1.91e5	2.18e5	15420
Nha2 (Na[+]/H[+] hydrogen antiporter 2)	2	75200 (active)	83625	84845	88260	13060
Nha2 (Na[+]/H[+] hydrogen antiporter 2)	3	1.61e5	1.67e5	2.30e5	1.90e5	13550
BubR1 (Bub1-related kinase)	1	1.14e5	98880	1.14e5	1.21e5	9020
CG14882	1	1.83e5	2.03e5	2.47e5	2.66e5	18480
CG11333	1	1.28e5	1.40e5	2.22e5	2.27e5	11790

The list goes on (3 carried over from the part before).
Target gene	dsRNA no.	induced reporter light, run 1, well a	induced reporter light, run 1, well b	control promoter light, run 1, well a	control promoter light, run 1, well b	uninduced reporter light, run 1, well a
BubR1 (Bub1-related kinase)	1	1.14e5	98880	1.14e5	1.21e5	9020
CG14882	1	1.83e5	2.03e5	2.47e5	2.66e5	18480
CG11333	1	1.28e5	1.40e5	2.22e5	2.27e5	11790
CG43102	1	1.99e5	1.80e5	1.98e5	1.99e5	14290
CG43102	2	2.17e5	1.98e5	2.30e5	2.24e5	18140
CG6067	1	1.76e5	1.39e5	3.20e5	2.99e5	11015
IFT57 (Intraflagellar transport 57)	1	1.77e5	1.57e5	1.95e5	1.60e5	13240
Snx21 (Sorting nexin 21)	1	1.79e5	1.85e5	1.92e5	2.02e5	17725
js (jiangshi)	1	2.10e5 (active)	2.19e5	1.41e5	1.31e5	14938
l(2)05287 (lethal (2) 05287)	1	98120	1.33e5	1.02e5	81025	7025
l(2)05287 (lethal (2) 05287)	2	49875	37490	35285	25115	2585
stumps	1	1.11e5	1.75e5	1.64e5	1.80e5	10415
stumps	2	1.37e5	1.49e5	1.08e5	1.24e5	12505
stumps	3	1.13e5	1.04e5	71590	74060	7992
